These are yes or no findings as the source states them, for the method shown. In cells and extracts the contact can be indirect. Some results given as binding are weak or reduced against the parent protein; the word gives no strength.
Key:
[1] = molecular target: CLIP-170, endogenous (human (endogenous in HPAEC)) (UniProt P30622); test: co-IP; lysates of HPAEC expressing Myc-SOCS3 (TBS-NP40: 20 mM Tris pH 7.4, 150 mM NaCl, 1% NP40); precipitated with antibodies to the endogenous partner (gp130, JAK2, α- or β-tubulin, CLIP-170, CLASP2) overnight at 4 °C, Protein G agarose; blot for Myc or EB1; in Fig. 7C also after IL-6 or HKSA (6 h)
[2] = molecular target: T1, CLASP2, endogenous (human (endogenous in HPAEC)) (UniProt O75122); test: as above
T1 sequence: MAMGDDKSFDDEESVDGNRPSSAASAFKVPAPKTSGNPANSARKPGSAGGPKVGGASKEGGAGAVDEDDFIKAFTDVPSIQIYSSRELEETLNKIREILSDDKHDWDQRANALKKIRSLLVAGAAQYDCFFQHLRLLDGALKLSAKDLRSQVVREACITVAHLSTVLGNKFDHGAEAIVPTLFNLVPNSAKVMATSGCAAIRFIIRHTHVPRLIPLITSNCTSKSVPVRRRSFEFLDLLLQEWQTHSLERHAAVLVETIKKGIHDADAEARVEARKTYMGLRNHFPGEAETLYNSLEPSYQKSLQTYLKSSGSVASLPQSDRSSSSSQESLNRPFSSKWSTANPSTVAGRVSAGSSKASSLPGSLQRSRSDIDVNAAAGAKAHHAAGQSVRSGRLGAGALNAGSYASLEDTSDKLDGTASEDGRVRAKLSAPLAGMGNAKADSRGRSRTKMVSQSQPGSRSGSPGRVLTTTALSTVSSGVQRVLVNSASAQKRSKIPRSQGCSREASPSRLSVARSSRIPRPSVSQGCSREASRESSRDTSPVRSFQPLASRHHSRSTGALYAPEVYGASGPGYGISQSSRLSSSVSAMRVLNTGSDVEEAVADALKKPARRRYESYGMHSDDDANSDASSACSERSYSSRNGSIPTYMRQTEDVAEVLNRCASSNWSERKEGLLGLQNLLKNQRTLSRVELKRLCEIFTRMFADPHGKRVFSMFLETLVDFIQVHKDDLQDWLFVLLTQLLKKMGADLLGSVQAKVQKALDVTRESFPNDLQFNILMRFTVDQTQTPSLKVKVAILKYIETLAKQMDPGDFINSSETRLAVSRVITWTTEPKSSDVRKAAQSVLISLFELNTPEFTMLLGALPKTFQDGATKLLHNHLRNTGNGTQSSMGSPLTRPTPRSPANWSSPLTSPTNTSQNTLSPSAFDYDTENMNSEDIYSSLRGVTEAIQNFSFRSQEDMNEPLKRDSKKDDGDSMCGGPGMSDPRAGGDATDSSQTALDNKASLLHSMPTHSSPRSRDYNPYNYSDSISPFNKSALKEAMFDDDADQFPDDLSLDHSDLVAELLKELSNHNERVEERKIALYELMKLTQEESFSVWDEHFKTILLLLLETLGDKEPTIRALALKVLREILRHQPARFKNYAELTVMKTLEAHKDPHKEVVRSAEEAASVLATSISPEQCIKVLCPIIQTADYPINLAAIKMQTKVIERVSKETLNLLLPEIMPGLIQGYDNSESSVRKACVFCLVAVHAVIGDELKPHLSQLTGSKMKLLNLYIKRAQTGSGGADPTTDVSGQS

Chains of the proteins cited; added tags and fusions are not shown.
UniProt P30622: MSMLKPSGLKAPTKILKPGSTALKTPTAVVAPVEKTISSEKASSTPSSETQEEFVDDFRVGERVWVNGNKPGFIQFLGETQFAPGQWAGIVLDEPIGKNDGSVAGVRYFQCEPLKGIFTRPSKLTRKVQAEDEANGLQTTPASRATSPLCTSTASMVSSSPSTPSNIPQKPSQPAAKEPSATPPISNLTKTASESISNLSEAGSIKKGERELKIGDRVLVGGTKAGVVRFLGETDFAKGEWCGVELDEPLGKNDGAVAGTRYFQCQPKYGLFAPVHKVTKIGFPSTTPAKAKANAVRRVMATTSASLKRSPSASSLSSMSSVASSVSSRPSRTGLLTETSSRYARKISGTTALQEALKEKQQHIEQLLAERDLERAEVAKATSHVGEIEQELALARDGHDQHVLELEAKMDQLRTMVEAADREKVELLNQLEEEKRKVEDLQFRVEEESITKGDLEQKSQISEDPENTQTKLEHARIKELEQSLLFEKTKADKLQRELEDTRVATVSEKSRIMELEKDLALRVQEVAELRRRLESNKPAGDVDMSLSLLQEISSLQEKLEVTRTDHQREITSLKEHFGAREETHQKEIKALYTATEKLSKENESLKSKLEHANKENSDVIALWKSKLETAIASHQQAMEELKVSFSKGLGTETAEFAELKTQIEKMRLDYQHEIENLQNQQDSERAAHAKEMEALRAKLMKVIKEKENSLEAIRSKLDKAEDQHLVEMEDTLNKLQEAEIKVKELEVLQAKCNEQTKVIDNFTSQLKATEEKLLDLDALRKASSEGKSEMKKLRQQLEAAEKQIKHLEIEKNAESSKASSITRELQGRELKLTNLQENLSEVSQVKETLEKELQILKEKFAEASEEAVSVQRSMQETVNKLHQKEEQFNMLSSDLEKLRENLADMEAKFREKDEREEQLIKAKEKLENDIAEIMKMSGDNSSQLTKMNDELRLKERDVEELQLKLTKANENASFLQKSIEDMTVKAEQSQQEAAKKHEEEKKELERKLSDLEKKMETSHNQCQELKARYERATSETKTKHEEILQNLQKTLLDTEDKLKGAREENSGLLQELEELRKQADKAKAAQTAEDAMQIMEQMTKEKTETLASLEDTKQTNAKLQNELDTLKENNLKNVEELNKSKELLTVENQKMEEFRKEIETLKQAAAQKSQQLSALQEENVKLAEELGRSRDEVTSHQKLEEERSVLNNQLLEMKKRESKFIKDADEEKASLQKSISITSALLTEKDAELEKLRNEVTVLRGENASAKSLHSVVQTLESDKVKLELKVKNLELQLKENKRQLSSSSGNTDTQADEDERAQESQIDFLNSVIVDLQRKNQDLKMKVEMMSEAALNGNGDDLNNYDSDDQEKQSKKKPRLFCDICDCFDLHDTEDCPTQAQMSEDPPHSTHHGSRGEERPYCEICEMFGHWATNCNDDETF
UniProt Q15691: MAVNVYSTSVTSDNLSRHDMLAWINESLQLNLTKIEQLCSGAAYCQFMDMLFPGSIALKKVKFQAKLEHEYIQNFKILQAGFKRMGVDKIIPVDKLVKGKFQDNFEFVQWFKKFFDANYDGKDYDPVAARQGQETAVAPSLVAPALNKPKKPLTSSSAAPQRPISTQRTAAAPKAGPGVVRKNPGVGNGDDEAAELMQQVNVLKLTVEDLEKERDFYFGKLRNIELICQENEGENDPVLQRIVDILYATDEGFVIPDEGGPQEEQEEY

For “EB1 (End-Binding Protein 1), endogenous (from UniProt Q15691 1-268)”, the binding [1] was “binds” and the binding [2] was “binds”.
